For assay [1], the target named is Flag-p85S6K (85-kDa isoform of ribosomal protein S6 kinase 1) (UniProt P23443). Description: co-IP; extracts of HEK293 cells transfected with Flag-p85S6K (or empty vector) mixed with protein lysates from mouse hippocampus, then immunoprecipitation and immunoblot. (In general: In western blotting, separated proteins are transferred to a membrane and probed.)
The target is the same in assay [2]. The assay is described as follows: co-IP; HEK293 cells co-transfected with AKAP79 and the tagged proteins (Flag-p85S6K or Flag-p70S6K, Myc-GluA1 or Myc-GluA2); Pierce IP lysis buffer, anti-Flag or anti-c-Myc overnight at 4 °C, protein A/G agarose; for PKA with or without overexpressed p85S6K.
In assay [3] the target is Myc-GluA1 (GluA1 subunit of AMPA receptor) (UniProt P19490). The assay is described as above.

Amino acid sequences for entries named in this document (tags omitted). Residues count along the entry.
UniProt P23443: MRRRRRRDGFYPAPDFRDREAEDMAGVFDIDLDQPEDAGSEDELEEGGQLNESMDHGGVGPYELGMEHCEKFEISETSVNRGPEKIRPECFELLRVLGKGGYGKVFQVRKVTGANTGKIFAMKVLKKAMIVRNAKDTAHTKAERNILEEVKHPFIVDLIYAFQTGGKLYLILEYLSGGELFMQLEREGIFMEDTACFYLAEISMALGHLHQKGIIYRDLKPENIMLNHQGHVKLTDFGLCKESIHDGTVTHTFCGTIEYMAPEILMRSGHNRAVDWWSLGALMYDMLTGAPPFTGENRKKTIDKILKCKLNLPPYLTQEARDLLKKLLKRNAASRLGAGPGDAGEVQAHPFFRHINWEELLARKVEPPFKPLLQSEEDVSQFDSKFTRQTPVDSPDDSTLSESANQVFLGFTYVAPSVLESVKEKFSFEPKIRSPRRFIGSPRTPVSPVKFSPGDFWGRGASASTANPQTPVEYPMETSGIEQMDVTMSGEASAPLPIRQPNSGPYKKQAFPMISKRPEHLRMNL
UniProt P19490, residues 19-907: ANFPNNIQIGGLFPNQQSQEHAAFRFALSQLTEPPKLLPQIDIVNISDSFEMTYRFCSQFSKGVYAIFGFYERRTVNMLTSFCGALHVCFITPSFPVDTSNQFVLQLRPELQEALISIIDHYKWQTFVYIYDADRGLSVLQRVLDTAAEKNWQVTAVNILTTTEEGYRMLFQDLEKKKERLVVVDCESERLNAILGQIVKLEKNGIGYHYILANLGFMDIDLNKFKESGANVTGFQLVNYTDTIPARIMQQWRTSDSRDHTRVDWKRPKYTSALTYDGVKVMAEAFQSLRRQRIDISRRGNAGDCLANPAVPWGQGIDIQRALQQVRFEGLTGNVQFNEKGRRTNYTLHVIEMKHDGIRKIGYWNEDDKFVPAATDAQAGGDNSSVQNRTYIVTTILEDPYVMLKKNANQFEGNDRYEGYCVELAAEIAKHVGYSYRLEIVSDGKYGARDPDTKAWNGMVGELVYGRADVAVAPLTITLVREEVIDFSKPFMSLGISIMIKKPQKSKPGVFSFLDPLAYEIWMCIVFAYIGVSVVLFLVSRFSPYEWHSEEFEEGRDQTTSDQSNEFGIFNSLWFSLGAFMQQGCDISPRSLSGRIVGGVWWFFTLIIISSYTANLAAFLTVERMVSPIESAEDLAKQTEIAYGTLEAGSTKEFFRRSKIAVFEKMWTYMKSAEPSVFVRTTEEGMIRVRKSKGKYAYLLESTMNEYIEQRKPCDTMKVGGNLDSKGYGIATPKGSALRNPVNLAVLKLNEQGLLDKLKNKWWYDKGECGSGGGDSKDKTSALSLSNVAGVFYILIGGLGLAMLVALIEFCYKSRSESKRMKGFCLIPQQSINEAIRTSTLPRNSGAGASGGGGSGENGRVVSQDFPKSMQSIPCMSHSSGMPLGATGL
UniProt Q9Z2W9, residues 23-888: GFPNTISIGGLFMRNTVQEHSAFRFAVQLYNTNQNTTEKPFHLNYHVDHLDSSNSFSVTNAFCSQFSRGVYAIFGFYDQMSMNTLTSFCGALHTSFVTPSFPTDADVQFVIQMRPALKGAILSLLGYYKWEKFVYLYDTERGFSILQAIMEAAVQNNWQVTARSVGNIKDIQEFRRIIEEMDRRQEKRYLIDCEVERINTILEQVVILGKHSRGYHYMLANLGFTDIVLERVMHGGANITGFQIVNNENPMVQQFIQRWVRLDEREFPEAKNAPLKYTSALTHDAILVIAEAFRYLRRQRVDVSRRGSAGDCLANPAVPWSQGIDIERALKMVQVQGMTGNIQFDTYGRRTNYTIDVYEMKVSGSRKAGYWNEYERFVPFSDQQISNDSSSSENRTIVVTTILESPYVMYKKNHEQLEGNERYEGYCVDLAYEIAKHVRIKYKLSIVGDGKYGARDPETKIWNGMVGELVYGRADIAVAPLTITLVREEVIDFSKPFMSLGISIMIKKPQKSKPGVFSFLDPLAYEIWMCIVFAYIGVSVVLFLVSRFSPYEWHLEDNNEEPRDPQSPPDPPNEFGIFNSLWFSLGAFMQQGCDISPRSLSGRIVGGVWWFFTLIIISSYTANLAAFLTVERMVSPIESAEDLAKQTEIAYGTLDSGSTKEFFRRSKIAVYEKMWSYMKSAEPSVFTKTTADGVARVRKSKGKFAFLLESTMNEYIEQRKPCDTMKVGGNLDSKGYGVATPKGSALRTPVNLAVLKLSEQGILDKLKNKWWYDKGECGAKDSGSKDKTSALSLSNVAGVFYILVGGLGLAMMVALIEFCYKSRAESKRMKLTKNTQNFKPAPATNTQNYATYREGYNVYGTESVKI
UniProt P19491, residues 22-883: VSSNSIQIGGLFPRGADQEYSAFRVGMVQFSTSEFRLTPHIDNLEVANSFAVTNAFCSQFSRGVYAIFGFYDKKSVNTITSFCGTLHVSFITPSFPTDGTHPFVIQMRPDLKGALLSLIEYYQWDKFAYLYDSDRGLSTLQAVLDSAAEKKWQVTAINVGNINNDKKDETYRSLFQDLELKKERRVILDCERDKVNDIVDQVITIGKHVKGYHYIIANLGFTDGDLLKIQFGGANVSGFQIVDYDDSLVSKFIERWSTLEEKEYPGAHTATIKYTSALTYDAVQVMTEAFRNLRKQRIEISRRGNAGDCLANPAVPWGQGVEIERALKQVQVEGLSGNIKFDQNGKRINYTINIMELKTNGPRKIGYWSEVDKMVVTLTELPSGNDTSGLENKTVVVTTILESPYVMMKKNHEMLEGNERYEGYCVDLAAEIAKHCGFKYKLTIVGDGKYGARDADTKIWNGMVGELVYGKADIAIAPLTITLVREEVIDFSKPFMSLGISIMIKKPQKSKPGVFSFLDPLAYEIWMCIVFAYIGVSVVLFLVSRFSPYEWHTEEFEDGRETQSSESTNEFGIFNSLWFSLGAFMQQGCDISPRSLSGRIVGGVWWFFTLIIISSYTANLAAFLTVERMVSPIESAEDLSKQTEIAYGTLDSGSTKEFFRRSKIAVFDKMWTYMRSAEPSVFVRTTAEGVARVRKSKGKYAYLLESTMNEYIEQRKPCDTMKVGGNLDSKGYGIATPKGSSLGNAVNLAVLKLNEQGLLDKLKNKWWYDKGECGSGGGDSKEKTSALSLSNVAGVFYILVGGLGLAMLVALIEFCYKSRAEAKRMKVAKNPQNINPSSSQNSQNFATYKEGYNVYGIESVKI
UniProt P24588: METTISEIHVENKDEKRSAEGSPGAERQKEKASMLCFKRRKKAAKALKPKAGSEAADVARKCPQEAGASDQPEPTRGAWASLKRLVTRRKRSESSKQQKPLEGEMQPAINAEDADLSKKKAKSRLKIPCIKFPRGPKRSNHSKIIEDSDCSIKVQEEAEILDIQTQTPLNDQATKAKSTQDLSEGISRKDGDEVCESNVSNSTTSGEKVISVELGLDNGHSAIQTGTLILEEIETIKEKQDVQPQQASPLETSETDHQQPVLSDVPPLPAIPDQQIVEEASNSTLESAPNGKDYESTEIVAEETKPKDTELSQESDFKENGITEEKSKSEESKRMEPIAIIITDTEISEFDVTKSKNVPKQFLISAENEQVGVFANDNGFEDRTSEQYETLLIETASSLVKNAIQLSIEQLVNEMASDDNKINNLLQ

No constants are given. Whether binding was seen depends on the method and setting. Binding seen in cells or lysates may run through a third protein. Some binding calls cover weakened binding; strength is not graded here.

With “GluA3 subunit of AMPA receptor, endogenous in mouse hippocampus (from UniProt Q9Z2W9 23-888)”, the binding entry in assay [1] is reported as “no binding”.

For “Myc-GluA2 (GluA2 subunit of AMPA receptor) (from UniProt P19491 22-883)”, the binding result in assay [2] is reported as “no binding”.

In the case of “AKAP79-GFP (A-kinase anchoring protein 79) (from UniProt P24588 1-427)”, the binding result in assay [2] and in assay [3] was “binds” in each case.
